Measurements as given in publication PMC7925099, “Identification of an Antiretroviral Small Molecule That Appears To Be a Host-Targeting Inhibitor of HIV-1 Assembly” (Journal of Virology, 2021).
No constants are given. Whether binding was seen depends on the method and setting. In cells and extracts the contact can be indirect. Some entries that bind do so weakly or less than the wild type.

Amino acid sequences for entries named in this document (tags omitted).
UniProt P26196: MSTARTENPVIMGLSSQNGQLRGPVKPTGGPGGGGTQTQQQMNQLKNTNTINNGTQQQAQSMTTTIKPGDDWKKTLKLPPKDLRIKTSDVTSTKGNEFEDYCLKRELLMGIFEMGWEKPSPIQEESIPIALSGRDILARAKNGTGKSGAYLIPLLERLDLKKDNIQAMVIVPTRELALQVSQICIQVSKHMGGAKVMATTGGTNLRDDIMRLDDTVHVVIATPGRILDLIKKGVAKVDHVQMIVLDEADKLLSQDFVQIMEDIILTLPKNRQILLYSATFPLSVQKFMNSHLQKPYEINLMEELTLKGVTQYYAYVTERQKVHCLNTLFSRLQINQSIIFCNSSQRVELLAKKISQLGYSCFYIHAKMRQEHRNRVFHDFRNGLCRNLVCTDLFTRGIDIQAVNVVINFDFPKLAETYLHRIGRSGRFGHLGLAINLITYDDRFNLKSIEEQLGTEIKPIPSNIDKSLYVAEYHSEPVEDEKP
UniProt Q8IZH2: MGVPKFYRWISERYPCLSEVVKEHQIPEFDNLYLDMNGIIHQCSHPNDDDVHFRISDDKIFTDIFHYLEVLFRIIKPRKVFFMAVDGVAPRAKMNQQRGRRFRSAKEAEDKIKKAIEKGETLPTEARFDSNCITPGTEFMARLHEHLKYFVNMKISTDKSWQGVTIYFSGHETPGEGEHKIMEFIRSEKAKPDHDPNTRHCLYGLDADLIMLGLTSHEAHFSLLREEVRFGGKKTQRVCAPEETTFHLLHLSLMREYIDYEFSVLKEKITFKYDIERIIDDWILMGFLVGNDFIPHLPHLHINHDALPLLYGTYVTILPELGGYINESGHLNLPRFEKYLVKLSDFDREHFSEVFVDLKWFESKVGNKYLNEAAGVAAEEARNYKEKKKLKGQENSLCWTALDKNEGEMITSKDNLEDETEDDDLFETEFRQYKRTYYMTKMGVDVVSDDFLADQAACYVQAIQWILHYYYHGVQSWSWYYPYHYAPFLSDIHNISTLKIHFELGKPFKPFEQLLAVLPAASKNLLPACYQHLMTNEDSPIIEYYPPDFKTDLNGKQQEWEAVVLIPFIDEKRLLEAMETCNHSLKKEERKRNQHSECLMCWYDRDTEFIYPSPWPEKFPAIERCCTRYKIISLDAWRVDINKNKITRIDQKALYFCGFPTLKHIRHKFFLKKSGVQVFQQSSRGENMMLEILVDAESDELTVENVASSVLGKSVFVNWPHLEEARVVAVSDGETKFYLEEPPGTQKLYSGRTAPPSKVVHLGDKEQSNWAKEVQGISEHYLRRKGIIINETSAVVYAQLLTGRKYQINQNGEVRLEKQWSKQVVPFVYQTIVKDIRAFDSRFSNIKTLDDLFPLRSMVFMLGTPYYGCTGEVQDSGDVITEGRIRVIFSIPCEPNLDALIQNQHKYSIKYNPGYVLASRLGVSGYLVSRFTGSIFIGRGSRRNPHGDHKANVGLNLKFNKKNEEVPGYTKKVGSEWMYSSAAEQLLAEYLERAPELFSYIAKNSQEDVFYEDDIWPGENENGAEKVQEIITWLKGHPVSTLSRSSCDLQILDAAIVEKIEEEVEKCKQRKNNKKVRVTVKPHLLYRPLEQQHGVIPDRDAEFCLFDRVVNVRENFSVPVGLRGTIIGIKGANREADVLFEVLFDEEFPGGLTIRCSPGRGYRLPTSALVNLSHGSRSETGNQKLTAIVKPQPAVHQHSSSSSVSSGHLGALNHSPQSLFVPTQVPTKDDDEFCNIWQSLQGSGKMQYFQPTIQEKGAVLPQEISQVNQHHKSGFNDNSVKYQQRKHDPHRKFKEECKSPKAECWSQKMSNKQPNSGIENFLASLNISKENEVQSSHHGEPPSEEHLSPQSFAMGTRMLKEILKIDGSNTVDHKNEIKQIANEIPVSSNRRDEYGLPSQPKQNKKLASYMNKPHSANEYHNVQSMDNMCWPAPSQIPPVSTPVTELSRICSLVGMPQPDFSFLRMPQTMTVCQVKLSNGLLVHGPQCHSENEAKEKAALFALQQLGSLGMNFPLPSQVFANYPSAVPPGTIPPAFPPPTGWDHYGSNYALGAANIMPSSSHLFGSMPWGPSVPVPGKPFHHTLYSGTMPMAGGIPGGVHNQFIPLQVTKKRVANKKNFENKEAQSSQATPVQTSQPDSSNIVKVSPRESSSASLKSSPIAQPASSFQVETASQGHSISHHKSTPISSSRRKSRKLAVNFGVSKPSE
UniProt Q13283: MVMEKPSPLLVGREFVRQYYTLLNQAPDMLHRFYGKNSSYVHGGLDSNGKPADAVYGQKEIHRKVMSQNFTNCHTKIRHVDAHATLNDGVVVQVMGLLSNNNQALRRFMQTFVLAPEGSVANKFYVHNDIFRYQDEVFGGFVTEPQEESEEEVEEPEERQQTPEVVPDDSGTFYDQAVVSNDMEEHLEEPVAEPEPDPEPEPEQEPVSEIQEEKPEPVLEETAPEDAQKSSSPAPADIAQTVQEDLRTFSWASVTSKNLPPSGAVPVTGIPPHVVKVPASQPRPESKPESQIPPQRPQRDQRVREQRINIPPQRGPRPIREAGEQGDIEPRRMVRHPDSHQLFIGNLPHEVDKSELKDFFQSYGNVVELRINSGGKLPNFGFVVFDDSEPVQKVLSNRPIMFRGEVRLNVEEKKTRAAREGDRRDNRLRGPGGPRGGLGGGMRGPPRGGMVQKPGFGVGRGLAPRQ

What was measured:
[1] = target: DEAD box RNA helicase 6 (DDX6) (human (endogenous in 293T)) (UniProt P26196); assay: proximity ligation; Duolink PLA on fixed, saponin-permeabilised 293T cells chronically infected with HIV-1 (293T-HIV); one rabbit and one mouse primary antibody to the two endogenous proteins; spots where the antigens are within ~40 nm; cells untreated or treated 16 h with 10 uM PAV-818, 10 uM PAV-543 or DMSO
[2] = target: T1, TIAR (human (endogenous in 293T)) (UniProt Q01085); assay: as above
T1 sequence: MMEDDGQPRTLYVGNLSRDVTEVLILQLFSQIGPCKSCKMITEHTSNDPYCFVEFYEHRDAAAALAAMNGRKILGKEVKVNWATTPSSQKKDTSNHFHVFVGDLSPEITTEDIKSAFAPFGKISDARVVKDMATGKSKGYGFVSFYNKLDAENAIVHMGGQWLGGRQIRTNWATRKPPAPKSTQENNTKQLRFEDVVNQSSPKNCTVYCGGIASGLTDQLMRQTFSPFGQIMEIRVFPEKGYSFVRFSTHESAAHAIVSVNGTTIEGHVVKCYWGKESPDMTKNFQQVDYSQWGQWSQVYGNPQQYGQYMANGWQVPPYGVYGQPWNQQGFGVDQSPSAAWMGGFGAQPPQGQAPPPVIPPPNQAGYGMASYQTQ

| Substance | binding [1] | binding [2] |
| --- | --- | --- |
| 5'-3' exoribonuclease 1 (XRN1) (from UniProt Q8IZH2 1-1706) | binds | – |
| Ras-GAP SH3 domain-binding protein 1 (G3BP1) (from UniProt Q13283 1-466) | – | binds |
